Measurements from PubChem BioAssay AID192 (DTP/NCI, 2004).
The list does not hold the whole screen: it is rich in T/C values a quarter to a half above the control, in often repeated tests (any T/C) and in doses without a T/C. Further doses and runs are listed elsewhere. T/C: endpoint of the treated group in % of that of the vehicle group. Some entries give survivors of the animals treated and no T/C: the source files T/C as zero there, which appears to mark a toxic dose or a test without result, not a measured value. Some doses without a T/C left all or most animals alive at the check, yet need not have been tolerated: the source hardly ever lists a survival T/C far under the control, and the zero likely stands for such cases as well. Survivors were counted at the toxicity check, usually on the fifth day, unless a day is given; later deaths do not show. Schedule codes are those of the source, read here as Q, the interval in days (D) or hours (H), X, the number of doses. Some entries hold several experiments; the values are given in rising order. For survival time, this PubChem deposit counts one and a half times the control or more as active, and values a quarter to a half above the control carry no call in these data; other NCI protocols may use other cut-offs. Some T/C values are followed by the survivors on the day toxicity was checked, most often the fifth; without a count, all were alive then.

Tested on: BDF1 mice, B16 melanoma ip, median survival T/C
Assay: NCI In Vivo Anticancer Drug Screen. Data for tumor model B16 Melanoma (intraperitoneal) in B6D2F1 (BDF1) mice
Details: T/C endpoint: median survival time, higher T/C = longer survival
Summary of the method: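 Values are ratios of treated (T) to vehicle-control (C) measurements of survival or tumor size in tumor-bearing mice.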

[1] = dose: 3.7 micrograms/kg/injection, schedule: Q01DX009 (ip), vehicle: saline with Tween-80
[2] = dose: 7.5 micrograms/kg/injection, schedule: Q01DX009 (ip), vehicle: saline with Tween-80
[3] = dose: 400.0 mg/kg/injection, schedule: Q01DX009 (ip), vehicle: Klucel (hydroxypropylcellulose) (HPC)
[4] = dose: 25.0 mg/kg/injection, schedule: Q01DX009 (ip), vehicle: Klucel (hydroxypropylcellulose) (HPC)
[5] = dose: 100.0 mg/kg/injection, schedule: Q01DX009 (ip), vehicle: Klucel (hydroxypropylcellulose) (HPC)
[6] = dose: 200.0 mg/kg/injection, schedule: Q01DX009 (ip), vehicle: Klucel (hydroxypropylcellulose) (HPC)
[7] = dose: 100.0 mg/kg/injection, schedule: Q01DX009 (ip), vehicle: saline with Tween-80
[8] = dose: 200.0 mg/kg/injection, schedule: Q01DX009 (ip), vehicle: saline with Tween-80
[9] = dose: 400.0 mg/kg/injection, schedule: Q01DX009 (ip), vehicle: saline with Tween-80
[10] = dose: 6.25 mg/kg/injection, schedule: Q01DX009 (ip), vehicle: saline
[11] = dose: 12.5 mg/kg/injection, schedule: Q01DX009 (ip), vehicle: saline
[12] = dose: 25.0 mg/kg/injection, schedule: Q01DX009 (ip), vehicle: saline
[13] = dose: 50.0 mg/kg/injection, schedule: Q01DX009 (ip), vehicle: saline
[14] = dose: 50.0 mg/kg/injection, schedule: Q01DX009 (ip), vehicle: Klucel (hydroxypropylcellulose) (HPC)
[15] = dose: 100.0 mg/kg/injection, schedule: Q01DX009 (ip), vehicle: saline
[16] = dose: 200.0 mg/kg/injection, schedule: Q01DX009 (ip), vehicle: saline
[17] = dose: 400.0 mg/kg/injection, schedule: Q01DX009 (ip), vehicle: saline

`CSC1SCC2C(=O)N(C)C(C(C)C)C(=O)OCC(NC(=O)c3cnc4ccccc4n3)C(=O)NC(C)C(=O)N(C)C1C(=O)N(C)C(C(C)C)C(=O)OCC(NC(=O)c1cnc3ccccc3n1)C(=O)NC(C)C(=O)N2C` (stereo not given) was tested, and the T/C (dose: 1.9 micrograms/kg/injection, schedule: Q01DX009 (ip), vehicle: saline) was 131 % of control, the T/C [1] was 138 % of control and the survivor count [1] was 10 of 10. For the same compound, the T/C (dose: 3.75 micrograms/kg/injection, schedule: Q01DX009 (ip), vehicle: clinical formulation) was 127 % of control, the T/C (dose: 3.8 micrograms/kg/injection, schedule: Q01DX009 (ip), vehicle: saline) was 137 % of control [9 of 10 alive] and the T/C (dose: 7.5 micrograms/kg/injection, schedule: Q01DX009 (ip), vehicle: clinical formulation) was 140 % of control [9 of 10 alive]. For the same compound, the T/C [2] was 148 % of control, the survivor count [2] was 10 of 10 and the T/C (dose: 8.0 micrograms/kg/injection, schedule: Q01DX009 (ip), vehicle: other) was 134 % of control. The T/C (dose: 15.0 micrograms/kg/injection, schedule: Q01DX009 (ip), vehicle: distilled water + alcohol) was 143 % of control, the T/C (dose: 15.0 micrograms/kg/injection, schedule: Q01DX009 (ip), vehicle: saline) was 138 % of control and the T/C (dose: 16.0 micrograms/kg/injection, schedule: Q01DX009 (ip), vehicle: other) was 142 % of control. The T/C (dose: 16.0 micrograms/kg/injection, schedule: Q01DX009 (ip), vehicle: saline sonified) was 135 % of control, the T/C (dose: 30.0 micrograms/kg/injection, schedule: Q01DX009 (ip), vehicle: Klucel (hydroxypropylcellulose) (HPC)) was 127 % of control [8 of 10 alive] and the T/C (dose: 30.0 micrograms/kg/injection, schedule: Q01DX009 (ip), vehicle: distilled water + alcohol) was 148 % of control. The T/C (dose: 30.0 micrograms/kg/injection, schedule: Q01DX009 (ip), vehicle: saline with Tween-80) was 148 % of control, the T/C (dose: 30.0 micrograms/kg/injection, schedule: Q01DX009 (ip), vehicle: saline) was 149 % of control and the T/C (dose: 60.0 micrograms/kg/injection, schedule: Q01DX009 (ip), vehicle: Klucel (hydroxypropylcellulose) (HPC)) was 147 % of control. The T/C (dose: 64.0 micrograms/kg/injection, schedule: Q01DX009 (ip), vehicle: saline sonified) was 148 % of control [9 of 10 alive on day 10], the survivor count (dose: 120.0 micrograms/kg/injection, schedule: Q01DX009 (ip), vehicle: clinical formulation) was 10 of 10 and the survivor count (dose: 128.0 micrograms/kg/injection, schedule: Q01DX009 (ip), vehicle: saline sonified) was 6 of 9 on day 10. The survivor count (dose: 192.0 micrograms/kg/injection, schedule: Q01DX009 (ip), vehicle: saline sonified) was 0 of 10 on day 10, the survivor count (dose: 240.0 micrograms/kg/injection, schedule: Q01DX009 (ip), vehicle: clinical formulation) was 9 of 10 and the survivor count (dose: 240.0 micrograms/kg/injection, schedule: Q01DX009 (ip), vehicle: distilled water + alcohol) was 8 of 10. For the same compound, the survivor count (dose: 240.0 micrograms/kg/injection, schedule: Q01DX009 (ip), vehicle: saline with Tween-80) was 10 of 10, the survivor count (dose: 480.0 micrograms/kg/injection, schedule: Q01DX009 (ip), vehicle: clinical formulation) was 1 of 10 and the survivor count (dose: 480.0 micrograms/kg/injection, schedule: Q01DX009 (ip), vehicle: distilled water + alcohol) was 1 of 10. For the same compound, the survivor count (dose: 480.0 micrograms/kg/injection, schedule: Q01DX009 (ip), vehicle: saline with Tween-80) was 8 of 10 and 10 of 10.
For `O=S(=O)(SC(S(=O)(=O)c1ccccc1)S(=O)(=O)c1ccccc1)c1ccccc1`, the survivor count [3] was 10 of 10.
In the case of `CCCCNC(=O)OCC(C)(CCC)COC(N)=O` (stereo not given), the survivor count [4] is reported as 10 of 10 and the survivor count [3] is reported as 10 of 10.
With `O=C1c2ccccc2C(=O)C(Cl)C1Cl` (stereo not given) the survivor count (dose: 0.78 mg/kg/injection, schedule: Q01DX009 (ip), vehicle: saline with Tween-80) was 10 of 10, the survivor count (dose: 1.56 mg/kg/injection, schedule: Q01DX009 (ip), vehicle: saline with Tween-80) was 10 of 10 and the survivor count (dose: 3.13 mg/kg/injection, schedule: Q01DX009 (ip), vehicle: saline with Tween-80) was 10 of 10. The survivor count (dose: 6.25 mg/kg/injection, schedule: Q01DX009 (ip), vehicle: saline with Tween-80) was 10 of 10, the survivor count (dose: 7.2 mg/kg/injection, schedule: Q01DX009 (ip), vehicle: saline) was 9 of 10 and the survivor count (dose: 11.0 mg/kg/injection, schedule: Q01DX009 (ip), vehicle: saline) was 0 of 10. For the same compound, the survivor count (dose: 12.5 mg/kg/injection, schedule: Q01DX009 (ip), vehicle: saline with Tween-80) was 4 of 10 and the survivor count (dose: 16.0 mg/kg/injection, schedule: Q01DX009 (ip), vehicle: saline) was 0 of 10.
For `CCN(CC)CCOc1ccc(Br)cc1`, the survivor count [4] was 9 of 10, the survivor count [5] was 6 of 10 and the survivor count [6] was 1 of 10.
With `CCCC1CC[N-]CC1.CCCC1CC[N-]CC1.[Cl][Pt+2][Cl]` the survivor count [7] was 1 of 6, the survivor count [8] was 1 of 6 and the survivor count [9] was 0 of 6.
In the case of `CC1CCCCN1CCNc1ccc(CO)c2sc3ccccc3c(=O)c12` (stereo not given), the survivor count [8] is reported as 10 of 10.
In the case of `N=P(N[P+](N)(c1ccccc1)c1ccccc1)(c1ccccc1)c1ccccc1`, the survivor count [10] is reported as 8 of 10, the survivor count [11] is reported as 8 of 10 and the survivor count [12] is reported as 0 of 10. The survivor count [13] was 0 of 10.
`COc1ccc(/C=N/n2c3ccccc3c3ccccc32)cc1OCCN(C)C` was tested, and the survivor count [14] was 5 of 10, the survivor count [5] was 0 of 10 and the survivor count [6] was 0 of 10. For the same compound, the survivor count [3] was 0 of 10.
In the case of `CC1NCCOC1c1ccccc1` (stereo not given), the T/C [10] is reported as 132 % of control, the T/C [11] is reported as 135 % of control [8 of 10 alive] and the survivor count [15] is reported as 10 of 10. The survivor count [16] was 0 of 10 and the survivor count [17] was 0 of 10.
`N=C(N)c1nn(C2OC(CO)C(O)C2O)c2ncnc(N)c12` (stereo not given) was tested, and the survivor count (dose: 6.25 mg/kg/injection, schedule: Q01DX009 (ip), vehicle: Klucel (hydroxypropylcellulose) (HPC)) was 10 of 10 and the survivor count [14] was 2 of 10.
`CN1NCc2cncnc21` was tested, and the survivor count [9] was 7 of 10.
In the case of `C=CCOCCN1CCN(CCCN2c3ccccc3Sc3ccc(C(F)(F)F)cc32)CC1`, the survivor count (dose: 1.25 mg/kg/injection, schedule: Q01DX009 (ip), vehicle: saline) is reported as 9 of 10 and 10 of 10, the survivor count (dose: 2.5 mg/kg/injection, schedule: Q01DX009 (ip), vehicle: saline) is reported as 10 of 10 and the survivor count (dose: 3.12 mg/kg/injection, schedule: Q01DX009 (ip), vehicle: saline) is reported as 10 of 10. For the same compound, the survivor count (dose: 5.0 mg/kg/injection, schedule: Q01DX009 (ip), vehicle: saline) was 10 of 10, the survivor count [10] was 9 of 10 and the survivor count (dose: 10.0 mg/kg/injection, schedule: Q01DX009 (ip), vehicle: saline) was 9 of 10. For the same compound, the survivor count [11] was 10 of 10, the survivor count [12] was 4 of 10 and the survivor count [13] was 5 of 10. The survivor count [15] was 0 of 10, the survivor count [16] was 0 of 10 and the survivor count [17] was 0 of 10.
With `ClC=P(c1ccccc1)(c1ccccc1)c1ccccc1` the survivor count (dose: 50.0 mg/kg/injection, schedule: Q04DX003 (ip), vehicle: saline with Tween-80) was 10 of 10, the survivor count [7] was 10 of 10 and the T/C (dose: 100.0 mg/kg/injection, schedule: Q04DX003 (ip), vehicle: saline with Tween-80) was 145 % of control. For the same compound, the survivor count [8] was 10 of 10 and the T/C (dose: 200.0 mg/kg/injection, schedule: Q04DX003 (ip), vehicle: saline with Tween-80) was 142 % of control.
In the case of `O=C1NNC(=O)NN1`, the T/C [14] is reported as 125 % of control.
